Some of the results follow.

Drawing on PMC7819943, “Rice protein-binding microarrays: a tool to detect cis-acting elements near promoter regions in rice”, this text covers binding signal for 42 sequences.

In this test the target is T1, OsSMF1 (Oryza sativa, UniProt Q6ZLB0 1-436).
T1 sequence: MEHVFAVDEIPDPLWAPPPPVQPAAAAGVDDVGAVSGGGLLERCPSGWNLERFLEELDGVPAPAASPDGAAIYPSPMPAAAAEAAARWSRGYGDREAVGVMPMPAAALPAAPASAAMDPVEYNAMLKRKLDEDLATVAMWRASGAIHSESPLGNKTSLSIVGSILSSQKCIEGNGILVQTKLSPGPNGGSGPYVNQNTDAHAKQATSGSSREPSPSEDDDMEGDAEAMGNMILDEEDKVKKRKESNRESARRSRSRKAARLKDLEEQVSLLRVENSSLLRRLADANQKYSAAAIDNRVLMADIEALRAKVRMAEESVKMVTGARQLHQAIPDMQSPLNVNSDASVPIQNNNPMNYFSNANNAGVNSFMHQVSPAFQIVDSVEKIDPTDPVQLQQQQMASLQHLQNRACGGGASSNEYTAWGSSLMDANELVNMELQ
Kind of test: protein-binding microarray (RPBM); PBS, 2% BSA, 51.3 ng/ul salmon testes DNA, 50 uM zinc acetate, 200 nM TF, 25 C, 1 h; high values mean tight binding. The note with it: protein: recombinant; tags: N-terminal polyhistidine and DsRed monomer fusion (pET32a); chain copies: 2; label: CyDye5-dUTP incorporated in the synthesized complementary strand; 3' TTTTT single-stranded linker to array surface; dsDNA, one strand shown. The procedure, abridged:
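In PBS with 2% BSA, salmon testes DNA and 50 µM zinc acetate, 200 nM protein was incubated on a custom Agilent array at 25 °C for 1 h and then washed off. The array had been made double-stranded by primer extension with Cy5-dUTP and blocked with 2% BSA. The proteins were transcription factors fused N-terminally to polyhistidine and DsRed, expressed in E. coli BL21-CodonPlus and purified on Ni–NTA. The binding signal is per-feature fluorescence intensity (arbitrary units) from an Axon 4000B scanner.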
For the sequence “TTGAACATGATTTGTGGTGGGTGGAGTGATTTATGTCATTCGGAGTCACCTAGTGCAG”, the binding signal is 3460 fluorescence intensity (a.u.). As to “GCCGCGCCGCCTCGCCCGACGTCGTAGCAACCAAGCCACCCGGAGTCACCTAGTGCAG”, the binding signal was 3460 fluorescence intensity (a.u.). As for “CTGAAAATCTTGTTCTGAATTCCAATAGAAAAGTTATTCTCGGAGTCACCTAGTGCAG”, the figure is 3540 fluorescence intensity (a.u.). Regarding “AATCGTGCTATACGTCCATTCTCCACGTGGCATGCCAGGTCGGAGTCACCTAGTGCAG”, the binding signal was 24200 fluorescence intensity (a.u.).

“ACAAGTGGGCCAAGAAGAACACGTCCTACTTGAAAGTGTGCGGAGTCACCTAGTGCAG”: the binding signal was 3310 fluorescence intensity (a.u.). As for “GCTGGCTGCAAGACGACGACGGATGATGCGACGGCGCGGCCGGAGTCACCTAGTGCAG”, the figure is 3220 fluorescence intensity (a.u.). With “GTGGCCCACCTGCAGCGTCACGCATCCTCGGAGGAGCAGGCGGAGTCACCTAGTGCAG”, the binding signal was 4960 fluorescence intensity (a.u.). As to “CGCCGCACGATCAAACTGCCGGTGTGGCAGTAGCAGCAGCCGGAGTCACCTAGTGCAG”, the binding signal was 3580 fluorescence intensity (a.u.).

Consider “TGACTTCGAACGCATTTGTCACCGCGACGTGCCAGCCAAACGGAGTCACCTAGTGCAG”, for which the binding signal is 4170 fluorescence intensity (a.u.). To “ACGGGGCAGAATCACCGATTTGCCGTCACGTCCACACTCCCGGAGTCACCTAGTGCAG” belongs 3650 fluorescence intensity (a.u.); to “CATAGAATGTGTATCGGTTAGTCGTGAGGCAACTCATGCACGGAGTCACCTAGTGCAG”, 34600 fluorescence intensity (a.u.); to “CGCTGGACGCCGCCAGATCTGCTGCTCGTCGCCGCGTGGGCGGAGTCACCTAGTGCAG”, 3480 fluorescence intensity (a.u.). To “CAGTGCTCCCTGCTGTCCACGCCGGCGCCGCGCCTCCCCACGGAGTCACCTAGTGCAG” belongs 3330 fluorescence intensity (a.u.).

Take “TCGCCGCCGGAAAGGGGATATGAGGTGGCGGAGATTCTTGCGGAGTCACCTAGTGCAG”: the binding signal was 5660 fluorescence intensity (a.u.).

In the case of “CCATTGTCCCCGCCGTCCCCGCCGTCCACGCCGGCGCCGCCGGAGTCACCTAGTGCAG”, the binding signal was 3690 fluorescence intensity (a.u.). Take “GATTTGCAGGCGCGCATTGATGAGAACGGTGACGGGGCAGCGGAGTCACCTAGTGCAG”: the binding signal is 6160 fluorescence intensity (a.u.). On to “TCGGCCCAATTACCCCATTCCGTCCAACTCCAACTCATCCCGGAGTCACCTAGTGCAG”, for which the binding signal was 3880 fluorescence intensity (a.u.). To “GAGACTTCTTAGTCTACACACATCATCACTATCAACTACTCGGAGTCACCTAGTGCAG” belongs 4070 fluorescence intensity (a.u.); to “TACAAAACAAATATTGTATTAAAATATAGTCAACGTTAAACGGAGTCACCTAGTGCAG”, 8390 fluorescence intensity (a.u.). “GATCCCGGGCCCGGCCCACTGGCCCAGTCAACTAATCCTCCGGAGTCACCTAGTGCAG”: the binding signal is 53100 fluorescence intensity (a.u.). As for “ACCATATGACCGAGTATTAGTTATTCATCCCTCTCATAATCGGAGTCACCTAGTGCAG”, the figure is 3440 fluorescence intensity (a.u.); as for “CCTCTACATTGGCAGTCCACGTCGGTGAGTGGATCGGGTCCGGAGTCACCTAGTGCAG”, 5560 fluorescence intensity (a.u.). To “GGGTGTTCGGTAGTCAAGATGTCGTGGCACAGGTCACACCCGGAGTCACCTAGTGCAG” belongs 9520 fluorescence intensity (a.u.); to “TCGTCATATCAGGAGCTGCATGCAATGTCGATTTGTTTCCCGGAGTCACCTAGTGCAG”, 3210 fluorescence intensity (a.u.). As for “ATGTCCATCATTCCCATATGGAGCTGCTCTAGGTTGGTGACGGAGTCACCTAGTGCAG”, the figure is 3540 fluorescence intensity (a.u.); as for “ACGGCCACCCCGAAAACACGCCACGCGAAACGACGAGCGCCGGAGTCACCTAGTGCAG”, 3310 fluorescence intensity (a.u.); as for “GACGATCAAGATCGACACGACCAACGTGGCATGTTGCGTACGGAGTCACCTAGTGCAG”, 9470 fluorescence intensity (a.u.). As for “CTGCATGCTGGCGCAAGCGTCACGGGTCTACCTTGAAAGTCGGAGTCACCTAGTGCAG”, the binding signal was 3320 fluorescence intensity (a.u.). As for “CTGGCTGCAACGGACGAAGACTTTGGTGAATGAGGCTTGACGGAGTCACCTAGTGCAG”, the figure is 17200 fluorescence intensity (a.u.); as for “GGACTTCCATTGTCGAGGAAATTACCACGTAAATTTGTTCCGGAGTCACCTAGTGCAG”, 3490 fluorescence intensity (a.u.). As for “CCTAATTATCTCTCTCTCCCTACCACGTCGTCTTCTCTTCCGGAGTCACCTAGTGCAG”, the figure is 5770 fluorescence intensity (a.u.); as for “GACATGTAGGACCCACGTGAGTCAATGACACGTGGGTCAGCGGAGTCACCTAGTGCAG”, 23800 fluorescence intensity (a.u.). As for “ATCGCCATTTCCATGTGTCAGAAATTAGTTCTGAGTTAAGCGGAGTCACCTAGTGCAG”, the figure is 3760 fluorescence intensity (a.u.); as for “GCTGCTGCCTATTGATGACACACCTCTACTGCAATGGCGGCGGAGTCACCTAGTGCAG”, 5340 fluorescence intensity (a.u.); as for “ATGGATTCCAACCACATGATCCATATGACGTCGTCGTCTTCGGAGTCACCTAGTGCAG”, 4860 fluorescence intensity (a.u.).

Regarding “CCATATAGGAATTTAAAACTAACTAAAATTCGGAATAAACCGGAGTCACCTAGTGCAG”, the binding signal is 3400 fluorescence intensity (a.u.).

As to “TAATCTAATCATGAAATGCAACTTTAGTTTATGTTTAACACGGAGTCACCTAGTGCAG”, the binding signal was 3160 fluorescence intensity (a.u.). As for “CTCGATGAGCCGATGCTTGGGGCTGCCCCTAATATTCACACGGAGTCACCTAGTGCAG”, the figure is 3260 fluorescence intensity (a.u.).

Consider “CATGTCTTTTGAAGACTCGTTGGGTGAGTAGTGGGGCTTACGGAGTCACCTAGTGCAG”, for which the binding signal is 3510 fluorescence intensity (a.u.). On to “CGAGTGGGACCCATAAGCTGACTCAGCTAGTCAGCAGAATCGGAGTCACCTAGTGCAG”, for which the binding signal is 16200 fluorescence intensity (a.u.). Turning to “TGATTAGTGATTAGTGCTAATCATAATTAGTGCCTACAAGCGGAGTCACCTAGTGCAG”, the binding signal was 26800 fluorescence intensity (a.u.). As to “CTCTTAACGGAGAAAAGAACGGGGCCGGCTTCAAGCCACGCGGAGTCACCTAGTGCAG”, the binding signal is 3370 fluorescence intensity (a.u.).
